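Cultured KMM1 myeloma cells are exposed to compounds for two days, then surviving cells are gauged by an ATP luminescent signal. Each compound runs as a dilution series from about 0.00003 µM, mostly topping out near 45.8 µM (up to 92 µM for some). The number is the fitted AC50 potency for loss of viability; a lower value means a more potent compound. Calls follow the curve class and fit quality; inconclusive means a weak, poorly fitted, top-dose-only or opposite-direction effect, scoring 1 to 39.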

Values are in nM. All entries here are filed as inconclusive. Only part of the assay is shown, chiefly results filed as inconclusive. Potencies fitted to partial, single-point or poorly fitting curves are rough. Some entries filed as inconclusive have a full curve. The first word of each remark tells which way the curve ran; it can be opposite to the aim of the assay. Activity scores are not listed here.

SMILES	Potency (nM)	remark
COc1cc(F)c(F)c(Nc2ccc(I)cc2F)c1NS(=O)(=O)C1(C[C@H](O)CO)CC1	13206	cytotoxic, partial curve
C[C@@H]1[C@H](O)[C@@H](C)C=CC=CC=CC=CC=CC=CC=C[C@H](O[C@@H]2O[C@H](C)[C@H](O)[C@H](N)[C@@H]2O)C[C@@H]2O[C@](O)(C[C@@H](O)C[C@@H](O)[C@H](O)CC[C@@H](O)C[C@@H](O)CC(=O)O[C@H]1C)C[C@H](O)[C@@H]2C(=O)O	1.9	rising, full curve, poor fit
CCOC(=O)C1=C(C)NC2=C(C(=O)CC(C)(C)C2)C1c1ccc(-c2ccccc2)cc1 (centres undefined)	3722	cytotoxic, partial curve, poor fit
Cn1cc(-c2ccc3nnc(C(F)(F)c4ccc5ncccc5c4)n3n2)cn1	11770	cytotoxic, partial curve
COc1ccccc1[C@H](c1cccc2ccccc12)[C@@](C)(C#N)C(=O)N1CCC(c2cccc(C(F)(F)F)c2)CC1	2093	cytotoxic, full curve
OCC(O)C(O)C(O)CO (centres undefined)	3317	rising, full curve, poor fit
Cc1cc([C@@H](C)Nc2ccccc2C(=O)O)c2nc(N3CCOCC3)cc(=O)n2c1	15206	cytotoxic, partial curve
CN[C@H]1CCc2cc(OC)c(OC)c(OC)c2-c2ccc(OC)c(=O)cc21	2.6	cytotoxic, full curve
Cc1ccccc1C(=O)Nc1ccc(C(=O)N2CCCC(O)c3cc(Cl)ccc32)c(C)c1 (centres undefined)	37221	cytotoxic, single point
Cc1cc(CS(=O)(=O)c2ccccc2)cc(OCc2ccc(CN3CCC[C@H]3CO)cc2)c1	5258	cytotoxic, partial curve
Clc1ccc(C(Cn2ccnc2)OCc2ccsc2Cl)c(Cl)c1 (centres undefined)	20930	cytotoxic, partial curve
CC[C@H](NC(C)C)[C@H](O)c1ccc(O)c2[nH]c(=O)ccc12	295.7	cytotoxic, full curve, poor fit
O=C(c1cc(Cc2n[nH]c(=O)c3ccccc23)ccc1F)N1CCN(C(=O)C2CC2)CC1	20930	cytotoxic, partial curve
NC(=O)c1ccc2[nH]ccc2c1	52.6	cytotoxic, full curve, poor fit
Cc1ccc(NC(=O)c2cccc(N(C)C)c2)cc1NC(=O)c1ccc(O)cc1	18654	cytotoxic, partial curve, poor fit
CC(C)C1CCC(C(=O)N[C@H](Cc2ccccc2)C(=O)O)CC1 (some centres undefined)	3.3	rising, full curve, poor fit
CCn1c(-c2nonc2N)nc2cncc(CNC3CCNCC3)c21	295.7	cytotoxic, partial curve, poor fit
CCOc1ccc(Cc2cc([C@@H]3O[C@H](CO)[C@@H](O)[C@H](O)[C@@H]3O)ccc2Cl)cc1	33173	cytotoxic, single point
CCOC(=O)C1=C[C@@H](OC(CC)CC)[C@H](NC(C)=O)[C@@H](N)C1	10490	cytotoxic, single point
CCC(C)n1ncn(-c2ccc(N3CCN(c4ccc(OC[C@H]5CO[C@](Cn6cncn6)(c6ccc(Cl)cc6Cl)O5)cc4)CC3)cc2)c1=O (some centres undefined)	833.3	cytotoxic, full curve, poor fit
Nc1ccc(-c2ccc3ncc4ccc(=O)n(-c5cccc(C(F)(F)F)c5)c4c3c2)cn1	20.9	cytotoxic, full curve
COc1cnc(NS(=O)(=O)c2ccc(N)cc2)nc1	11770	cytotoxic, full curve
NS(=O)(=O)OC[C@@H]1C[C@@H](n2ccc3c(N[C@H]4CCc5ccccc54)ncnc32)C[C@H]1O	372.2	cytotoxic, full curve
Cc1cnc(CNC(=O)c2c(=O)c3ccc(N4CCCN(C)CC4)nc3n3c2sc2ccccc23)cn1	4566	cytotoxic, partial curve, poor fit
Cc1ccnc2c1NC(=O)c1cccnc1N2C1CC1	4176	cytotoxic, partial curve, poor fit
Cc1ccc(C(=O)Nc2cccc(C(F)(F)F)c2)cc1-c1ccc2nc(NCCN3CCOCC3)ncc2c1	1866	cytotoxic, full curve
O=C1Cc2cc(CCN3CCN(c4nsc5ccccc45)CC3)c(Cl)cc2N1	9350	cytotoxic, single point
COc1ncnc(NS(=O)(=O)c2ccc(N)cc2)c1OC	11770	cytotoxic, single point
CC(C)(Sc1cc(C(C)(C)C)c(O)c(C(C)(C)C)c1)Sc1cc(C(C)(C)C)c(O)c(C(C)(C)C)c1	33173	cytotoxic, single point
O=C(NCC1CN(c2ccc(N3CCOCC3=O)cc2)C(=O)O1)c1ccc(Cl)s1 (centres undefined)	18654	cytotoxic, partial curve
Cc1c(C)c2c(c(C)c1O)CCC(C)(COc1ccc(CC3SC(=O)NC3=O)cc1)O2 (centres undefined)	20930	cytotoxic, partial curve
CN(C)CCOc1cc(-c2cn[nH]c2)ccc1NC(=O)C1COc2ccccc2O1 (centres undefined)	2957	cytotoxic, partial curve, poor fit
O=C(Nc1ccc(F)c(C(F)(F)F)c1)Nc1nnc(-c2ccncc2)s1	3317	cytotoxic, partial curve, poor fit
Nc1nc(N)c2nc(CNc3ccc(C(=O)NC(CCC(=O)O)C(=O)O)cc3)cnc2n1 (centres undefined)	37.2	cytotoxic, full curve
CN1CCc2c(n(Cc3ccc(C(=O)NO)cc3)c3ccccc23)C1	7427	cytotoxic, partial curve, poor fit
COc1ccc(S(=O)(=O)Nc2cccnc2Nc2ccc(O)cc2)cc1	742.7	cytotoxic, full curve, poor fit
CN1CCCC(n2nc(Cc3ccc(Cl)cc3)c3ccccc3c2=O)CC1 (centres undefined)	833.3	cytotoxic, full curve, poor fit
C[C@@H]1C[C@H]2[C@@H]3CCC4=CC(=O)C=C[C@]4(C)[C@@]3(F)[C@@H](O)C[C@]2(C)[C@@]1(O)C(=O)CO	26.4	cytotoxic, full curve, poor fit
CC(=CC(=O)Nc1ccccc1C(=O)O)c1ccc2ccccc2c1	33173	cytotoxic, single point
COc1cc(N2CCC(N3CCN(C)CC3)CC2)ccc1Nc1ncc(Cl)c(Nc2ccccc2S(=O)(=O)C(C)C)n1	29565	rising, single point
CCCCc1nc2cc(C=CC(=O)NO)ccc2n1CCN(CC)CC	41.8	cytotoxic, full curve, poor fit
O=C(O)C1(Cc2cccc(Nc3nccs3)n2)CCC(Oc2cccc(Cl)c2F)CC1 (centres undefined)	18654	cytotoxic, partial curve, poor fit
CC(N[C@H]1CCCC[C@H]1NC(=O)c1ccc(Cl)cc1)c1cccc2ccccc12 (some centres undefined)	3722	cytotoxic, full curve

Data taken from PubChem BioAssay AID1918960, deposited by NCATS (2023).